# PubChem BioAssay AID1259308 – NCATS, 2017
# Aim: 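Genes whose loss raises luciferase production in HEK293 cells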 (primary screen)
# Cell system: human HEK293 embryonic kidney cells stably expressing firefly luciferase (HEK-CMV-Luc2-Hygro)
# Knock-down reagent: single siRNA against human genes, 0.8 pmol siRNA per well
# Time to read-out: 72 h
# Measured: 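Luciferase light (ONE-Glo) measured on one replicate plate set and viability (CellTiter-Glo) on the other, scaled to a negative control siRNA, with robust z-scores and luciferase per cell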
# Reading the numbers: total luciferase, z-score: higher = more reporter protein produced
# Rule for the call: 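An siRNA counts as active if its total luciferase robust z-score exceeds 3; genes with two or more such siRNAs out of three were retested with fresh siRNAs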
# Calls: active = raised luciferase; inactive = no rise
# In all, the deposit lists about 59,000 reagents; shown is an unselected part. In the full data, about 1,510 (2.6%) got an active call. 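Calls use total luciferase alone and ignore viability, so some active siRNAs may act by altering cell number.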 Unmarked entries are inactive. The numbers tell different reagents against one gene apart. Further read-outs or replicates are left out here. Reagent sequences are not shown.
gene symbol,reagent no.,"total luciferase, z-score"
SIGLEC6,1,0.609
SIGLEC6,2,-0.421
SIGLEC6,3,0.773
PPP1R14D,1,-0.219
PPP1R14D,2,2.39
PPP1R14D,3,-0.941
YTHDC1,1,-1.03
YTHDC1,2,-0.336
YTHDC1,3,-0.908
H1-7,1,0.252
H1-7,2,-0.401
H1-7,3,1.89

Continued; the last 2 above are carried over.
gene symbol,reagent no.,"total luciferase, z-score"
H1-7,2,-0.401
H1-7,3,1.89
BICDL2,1,-0.0778
BICDL2,2,0.0147
BICDL2,3,-0.381
MPO,1,0.19
MPO,2,0.397
MPO,3,0.477
CORO2A,1,-0.381
CORO2A,2,0.258
CORO2A,3,-1.5
ESD,1,2.06
ESD,2,0.511
ESD,3,1.38
